± gives the standard deviation of the averaged measurements. The list shows a part of the results. This is a noisy data set.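 The cells are a human neuroglioma line carrying a green fluorescent autophagy reporter.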
Assays:
H4 GFP-LC3 [1] = assay: cell viability (scaled to control) (fraction of control); higher = more viable cells
H4 GFP-LC3 [2] = assay: ACBP immunofluorescence intensity (scaled to control) (AU (scaled)); higher = more intracellular ACBP/DBI

SMILES | cell viability (H4 GFP-LC3 [1]; 6 h) | cell viability (H4 GFP-LC3 [1]; 24 h) | ACBP immunofluorescence intensity (H4 GFP-LC3 [2]; 6 h) | ACBP immunofluorescence intensity (H4 GFP-LC3 [2]; 24 h)
CC[N+]1(C)C2CCC1CC(OC(=O)C1CCC(C(=O)OC3CC4CCC(C3)[N+]4(C)CC)(c3ccccc3)c3ccccc31)C2 (stereo not drawn) (5 µM) | 0.742 | 0.979 | 0.994 | 0.419
CSCCC(NC(=O)C(Cc1ccccc1)NC(=O)C(Cc1cnc[nH]1)NC(=O)CNC(=O)C(NC(=O)C(C)NC(=O)C(Cc1c[nH]c2ccccc12)NC(=O)C(CC(C)C)NC(=O)C(CC(N)=O)NC(=O)CN)C(C)O)C(N)=O (stereo not drawn) (5 µM) | 1.12 | 1.23 | 0.95 | 0.824
CN1CCc2cc(Cl)c(O)cc2[C@@H](c2ccccc2)C1 (5 µM) | 0.922 | 1.26 | 0.784 | 0.644
O=C(O)CNc1ccc(P(=O)(O)O)cc1 (5 µM) | 1.2 | 1.22 | 0.639 | 0.333
N=C(N)NCCC[C@H](NC(=O)[C@H](Cc1ccccc1)NC(=O)[C@@H]1CCCN1C(=O)[C@H](CO)NC(=O)[C@H](Cc1ccccc1)NC(=O)CNC(=O)[C@@H]1CCCN1C(=O)[C@@H]1CCCN1C(=O)[C@@H](N)CCCNC(=N)N)C(=O)O (5 µM) | 1.02 | 0.95 | 0.522 | 0.653
CC(N)(C(=O)O)c1ccc(C(=O)O)cc1 (racemic) (5 µM) | 1.02 | 1.34 | 0.909 | 0.5
NCCc1ccc(O)c(O)c1 (5 µM) | 0.763 | 1.33 | 0.987 | 0.739
O=C(O)c1ccncc1 (5 µM) | 0.763 | 1.04 | 0.985 | 0.52
CC(=O)N1CCN(C)CC1 (5 µM) | 1.09 | 1.32 | 0.945 | 0.758
N[C@@H]1CCN(O)C1=O (5 µM) | 1.11 | 1.24 | 0.697 | 0.507
CC1CCN(CCCC(=O)c2ccc(F)cc2)CC1 (5 µM) | 0.63 | 0.801 | 0.984 | 0.268
O=C(O)C1=CCCN(CCON=C(c2ccccc2)c2ccccc2)C1 (5 µM) | 0.936 | 1.21 | 0.933 | 0.746
N[C@@H](Cc1cc(I)c(Oc2ccc(O)c(I)c2)c(I)c1)C(=O)O [Triiodothyronine] (5 µM) | 1.05 | 1.1 | 0.483 | 0.704
CC(C)NCC(O)COc1cccc2ccccc12 (stereo not drawn) (5 µM) | 0.8 | 0.972 | 0.942 | 0.269
CSCC[C@H](NC(=O)[C@H](CC(C)C)NC(=O)CNC(=O)[C@@H](NC(=O)[C@H](Cc1ccccc1)NC(=O)[C@H](CO)NC(=O)[C@H](CC(=O)O)NC(=O)[C@@H](NC(=O)[C@H](CCCCN)NC(=O)[C@@H](N)Cc1c[nH]cn1)[C@@H](C)O)C(C)C)C(N)=O (5 µM) | 1.16 | 0.964 | 0.581 | 0.902
Nc1c2c(nc3ccccc13)CCCC2 (5 µM) | 0.854 | 1.39 | 0.999 | 0.785
O=C(NCCNCC(O)COc1ccc(O)cc1)N1CCOCC1 (stereo not drawn) (5 µM) | 0.924 | 0.884 | 0.767 | 0.486
Nc1ncnc2c1c(I)cn2[C@@H]1O[C@H](CO)[C@@H](O)[C@H]1O (5 µM) | 0.971 | 0.749 | 0.996 | 0.543
Nc1ncnc2c1ncn2[C@@H]1O[C@H](COP(=O)(O)OP(=O)(O)OP(=O)(O)O)[C@@H](O)[C@H]1O (5 µM) | 1.04 | 1 | 0.997 | 0.866

Reprinted at random: 3 entries already listed.
SMILES | cell viability (H4 GFP-LC3 [1]; 6 h) | cell viability (H4 GFP-LC3 [1]; 24 h) | ACBP immunofluorescence intensity (H4 GFP-LC3 [2]; 6 h) | ACBP immunofluorescence intensity (H4 GFP-LC3 [2]; 24 h)
O=C(NCCNCC(O)COc1ccc(O)cc1)N1CCOCC1 (stereo not drawn) (5 µM) | 0.924 | 0.884 | 0.767 | 0.486
O=C(O)C1=CCCN(CCON=C(c2ccccc2)c2ccccc2)C1 (5 µM) | 0.936 | 1.21 | 0.933 | 0.746
NCCc1ccc(O)c(O)c1 (5 µM) | 0.763 | 1.33 | 0.987 | 0.739

Following part:

SMILES | cell viability (H4 GFP-LC3 [1]; 6 h) | cell viability (H4 GFP-LC3 [1]; 24 h) | ACBP immunofluorescence intensity (H4 GFP-LC3 [2]; 6 h) | ACBP immunofluorescence intensity (H4 GFP-LC3 [2]; 24 h)
Cn1c(=O)c2c(nc(C=Cc3cccc(Cl)c3)n2C)n(C)c1=O (5 µM) | 0.988 | 1.16 | 1 | 0.903
Cc1scc2c1N(C(=O)CN1CCN(C)CC1)c1ccccc1NC2=O (5 µM) | 0.853 | 1.06 | 0.999 | 0.863
NCCc1c[nH]cn1 (5 µM) | 0.988 | 1.07 | 0.974 | 0.88
CC(C)NC[C@@H](O)COc1cccc2ccccc12 (5 µM) | 0.708 ± 0.038 | 0.933 ± 0.021 | 0.861 ± 0.055 | 0.361 ± 0.047
COCCNC(=O)COc1ccc(OCCNC[C@H](O)COc2ccccc2)cc1 (5 µM) | 0.821 | 0.854 | 0.958 | 0.796
CC[C@H](C)[C@H](NC(=O)[C@H](CC(=O)O)NC(=O)[C@H](CC(C)C)NC(=O)[C@H](Cc1c[nH]cn1)NC(=O)[C@@H]1CSSC[C@@H](N)C(=O)N[C@H](CO)C(=O)N[C@H]2CSSC[C@@H](NC(=O)[C@H](CCC(=O)O)NC(=O)[C@H](CCCCN)NC(=O)[C@@H](CC(=O)O)NC(=O)[C@H](CCSC)NC(=O)[C@@H](CC(C)C)NC(=O)[C@H](CO)NC(=O)[C@@H](CO)NC2=O)C(=O)N[C@@H](C(C)C)C(=O)N[C@H](Cc2ccc(O)cc2)C(=O)N[C@@H](Cc2ccccc2)C(=O)N1)C(=O)N[C@H](C(=O)N[C@@H](Cc1c[nH]c2ccccc12)C(=O)O)[C@@H](C)CC (5 µM) | 1.12 | 0.973 | 0.575 | 0.64
NC(CO)C(=O)O (racemic) (5 µM) | 1.14 | 0.691 | 0.74 | 0.627
CNC(=C[N+](=O)[O-])NCCSCc1ccc(CN(C)C)o1 (5 µM) | 0.863 | 1.12 | 0.997 | 0.886
CN1CCCCC1CCN1c2ccccc2Sc2ccc([S+](C)[O-])cc21 (stereo not drawn) (5 µM) | 0.815 ± 0.071 | 1.36 ± 0.12 | 0.975 ± 0.011 | 0.824 ± 0.039
COc1ccc2c3c1O[C@H]1C[C@@H](O)C=C[C@@]31CCN(C)C2 (5 µM) | 0.665 | 1.11 | 0.963 | 0.602
CN(C)CCCSc1ccccc1NC(=O)/C=C/c1ccccc1 (5 µM) | 0.797 | 1.11 | 0.956 | 0.733
CCC(C)C(NC(=O)C(C)NC(=O)C(CC(N)=O)NC(=O)C(CCCCN)NC(=O)C(Cc1ccccc1)NC(=O)C(CC(C)C)NC(=O)C(NC(=O)C(NC(=O)C(CC(C)C)NC(=O)C1CCCN1C(=O)C(NC(=O)C(CCC(N)=O)NC(=O)C(CO)NC(=O)C(CCCCN)NC(=O)C(CCC(=O)O)NC(=O)C(CO)NC(=O)C(NC(=O)C(CCSC)NC(=O)C(Cc1ccccc1)NC(=O)CNC(=O)CNC(=O)C(N)Cc1ccc(O)cc1)C(C)O)C(C)O)C(C)C)C(C)O)C(=O)NC(C(=O)NC(CCCCN)C(=O)NC(CC(N)=O)C(=O)NC(C)C(=O)NC(Cc1ccc(O)cc1)C(=O)NC(CCCCN)C(=O)NC(CCCCN)C(=O)NCC(=O)NC(CCC(=O)O)C(=O)O)C(C)CC (stereo not drawn) (5 µM) | 1.22 | 1.1 | 0.877 | 0.788
COc1cccc(OC)c1OCCNCC1COc2ccccc2O1 (stereo not drawn) (5 µM) | 0.945 | 1.1 | 0.772 | 0.45
CS(=O)(=O)Nc1c(O)ccc2c1CCCC2C1=NCCN1 (stereo not drawn) (5 µM) | 0.953 | 1.05 | 0.872 | 0.499
O=C(COc1ccc(C(=O)c2ccccc2)cc1)NC1CCN(Cc2ccccc2)CC1 (5 µM) | 1 | 1.06 | 0.922 | 0.832
CCCN(CCC)CCc1cccc2c1CC(=O)N2 (5 µM) | 0.796 | 1.32 | 0.985 | 0.823
CC(=O)[C@H]1CC[C@H]2[C@@H]3CCC4=CC(=O)CC[C@]4(C)[C@H]3CC[C@]12C (5 µM) | 1.06 | 1.15 | 0.55 | 0.876
Clc1ccc2c(c1)CCc1cccnc1C2=C1CCNCC1 (5 µM) | 1.01 | 0.943 | 0.961 | 0.76
CN1CCN2c3ncccc3Cc3ccccc3C2C1 (stereo not drawn) (5 µM) | 0.854 | 0.755 | 0.855 | 0.546

SMILES | cell viability (H4 GFP-LC3 [1]; 6 h) | cell viability (H4 GFP-LC3 [1]; 24 h) | ACBP immunofluorescence intensity (H4 GFP-LC3 [2]; 6 h) | ACBP immunofluorescence intensity (H4 GFP-LC3 [2]; 24 h)
CC[N+](CC)(CC)CCOc1ccc(/C=C/c2ccccc2)cc1 (5 µM) | 0.984 | 1.3 | 0.844 | 0.525
Nc1c2c(nc3ccccc13)CCCC2O (stereo not drawn) (5 µM) | 0.937 | 1.1 | 0.93 | 0.48
CC(=O)NCC(=O)N[C@H](CCC(=O)O)C(=O)O (5 µM) | 0.987 | 0.99 | 0.975 | 0.797
OCCN1CCN(CCCN2c3ccccc3Sc3ccc(C(F)(F)F)cc32)CC1 (5 µM) | 0.666 | 1.22 | 0.957 | 0.71
O=C(O)COc1ccc(OCCNC[C@H](O)COc2ccccc2)cc1 (5 µM) | 0.731 | 0.801 | 0.943 | 0.882
CNCC(O)c1ccc(O)c(O)c1 (racemic) (5 µM) | 1.23 | 0.954 | 0.457 | 0.736
CCCn1cnc2c1c(=O)n(CCCCC(C)=O)c(=O)n2C (5 µM) | 0.963 | 1.08 | 0.914 | 0.551
O=C(NC1CCN(Cc2ccccc2)CC1)c1ccc(I)cc1 (5 µM) | 0.885 | 1.12 | 0.907 | 0.828
CN1CCN(C2=Nc3ccccc3Oc3ccc(Cl)cc32)CC1 (5 µM) | 0.826 | 1.17 | 0.949 | 0.771
c1cc(CN2CCCCC2)cc(OCCCNc2nc3ccccc3s2)c1 (5 µM) | 1.08 | 1.03 | 0.902 | 0.569
CN1CCC(=C2c3ccccc3C=Cc3ccccc32)CC1 (5 µM) | 0.763 | 0.971 | 0.999 | 0.94
C=CC(N)CCC(=O)O (stereo not drawn) (5 µM) | 1.03 | 0.992 | 0.8 | 0.695
CCn1ccnc1CC1COc2ccccc2O1 (stereo not drawn) (5 µM) | 0.939 | 1.1 | 0.826 | 0.514
CC(C)(C)NC[C@H](O)COc1nsnc1N1CCOCC1 (5 µM) | 0.893 | 1.05 | 0.816 | 0.497
COc1ccccc1N1CCN(CCN2C(=O)c3ccccc3C(C)(C)C2=O)CC1 (5 µM) | 0.935 | 1.02 | 0.877 | 0.463
Nc1ncnc2c1ncn2[C@@H]1O[C@H](CSCC[C@H](N)C(=O)O)[C@@H](O)[C@H]1O (5 µM) | 0.982 | 1.11 | 1 | 0.826
CCC(=O)N1CCN(c2ccc(-n3c(=O)ccc4cnc5ccc(-c6cnc7ccccc7c6)cc5c43)cc2C(F)(F)F)CC1 (0.3 µM) | 1.03 | 0.789 | 0.437 | 0.269
CCN(CC)CCOC(=O)C1(c2ccc([N+](=O)[O-])cc2)CCCC1 (5 µM) | 0.914 | 1.02 | 0.922 | 0.591
CCC(C)C(NC(=O)C(CO)NC(=O)C(Cc1ccc(O)cc1)NC(=O)C(CC(=O)O)NC(=O)C(CO)NC(=O)C(NC(=O)C(Cc1ccccc1)NC(=O)C(NC(=O)CNC(=O)C(CCC(=O)O)NC(=O)C(C)NC(=O)C(N)Cc1ccc(O)cc1)C(C)O)C(C)CC)C(=O)NC(C)C(=O)NC(CCSC)C(=O)NC(CC(=O)O)C(=O)NC(CCCCN)C(=O)NC(C(=O)NC(Cc1c[nH]cn1)C(=O)NC(CCC(N)=O)C(=O)NC(CCC(N)=O)C(=O)NC(CC(=O)O)C(=O)NC(Cc1ccccc1)C(=O)NC(C(=O)NC(CC(N)=O)C(=O)NC(Cc1c[nH]c2ccccc12)C(=O)NC(CC(C)C)C(=O)NC(CC(C)C)C(=O)NC(C)C(=O)NC(CCC(N)=O)C(=O)NC(CCCCN)C(=O)NCC(=O)NC(CCCCN)C(=O)NC(CCCCN)C(=O)NC(CC(N)=O)C(=O)NC(CC(=O)O)C(=O)NC(Cc1c[nH]c2ccccc12)C(=O)NC(CCCCN)C(=O)NC(Cc1c[nH]cn1)C(=O)NC(CC(N)=O)C(=O)NC(C(=O)NC(C(=O)NC(CCC(N)=O)C(=O)O)C(C)O)C(C)CC)C(C)C)C(C)CC (stereo not drawn) (5 µM) | 1.11 | 1.02 | 0.648 | 0.799
